Results published in PMC6326162.
Changes are numbered by the printed parent chain. Names and notes keep the numbering of the source. These are yes or no findings as the source states them, for the method shown. Binding seen in cells or lysates may run through a third protein. Some entries that bind do so weakly or less than the wild type. Tags and fused reporters may be left off the sequences shown.

Protein sequences, listed by entry. Tags and fused reporters are not part of them.
UniProt P59017: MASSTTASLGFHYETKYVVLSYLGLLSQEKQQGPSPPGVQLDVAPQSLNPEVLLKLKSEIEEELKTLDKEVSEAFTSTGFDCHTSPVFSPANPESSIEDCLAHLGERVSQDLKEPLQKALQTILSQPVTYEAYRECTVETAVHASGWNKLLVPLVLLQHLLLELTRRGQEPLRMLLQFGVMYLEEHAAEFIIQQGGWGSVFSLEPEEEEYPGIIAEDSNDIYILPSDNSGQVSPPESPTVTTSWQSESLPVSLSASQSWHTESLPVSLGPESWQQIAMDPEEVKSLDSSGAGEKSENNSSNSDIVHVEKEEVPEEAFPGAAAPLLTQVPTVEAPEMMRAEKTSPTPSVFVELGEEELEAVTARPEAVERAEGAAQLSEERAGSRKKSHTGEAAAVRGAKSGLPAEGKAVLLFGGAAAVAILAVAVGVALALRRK

B1: FLAG-ULK1 wild type (mouse ULK1, p3xFLAG-CMV14-mULK1) (protein, UniProt O70405 1-1051)
chain: MEPGRGGVETVGKFEFSRKDLIGHGAFAVVFKGRHREKHDLEVAVKCINKKNLAKSQTLLGKEIKILKELKHENIVALYDFQEMANSVYLVMEYCNGGDLADYLHTMRTLSEDTVRLFLQQIAGAMRLLHSKGIIHRDLKPQNILLSNPGGRRANPSNIRVKIADFGFARYLQSNMMAATLCGSPMYMAPEVIMSQHYDGKADLWSIGTIVYQCLTGKAPFQASSPQDLRLFYEKNKTLVPAIPRETSAPLRQLLLALLQRNHKDRMDFDEFFHHPFLDASTPIKKSPPVPVPSYPSSGSGSSSSSSSASHLASPPSLGEMPQLQKTLTSPADAAGFLQGSRDSGGSSKDSCDTDDFVMVPAQFPGDLVAEAASAKPPPDSLLCSGSSLVASAGLESHGRTPSPSPTCSSSPSPSGRPGPFSSNRYGASVPIPVPTQVHNYQRIEQNLQSPTQQQTARSSAIRRSGSTTPLGFGRASPSPPSHTDGAMLARKLSLGGGRPYTPSPQVGTIPERPSWSRVPSPQGADVRVGRSPRPGSSVPEHSPRTTGLGCRLHSAPNLSDFHVVRPKLPKPPTDPLGATFSPPQTSAPQPCPGLQSCRPLRGSPKLPDFLQRSPLPPILGSPTKAGPSFDFPKTPSSQNLLTLLARQGVVMTPPRNRTLPDLSEASPFHGQQLGSGLRPAEDTRGPFGRSFSTSRITDLLLKAAFGTQASDSGSTDSLQEKPMEIAPSAGFGGTLHPGARGGGASSPAPVVFTVGSPPSGATPPQSTRTRMFSVGSSSSLGSTGSSSARHLVPGACGEAPELSAPGHCCSLADPLAANLEGAVTFEAPDLPEETLMEQEHTETLHSLRFTLAFAQQVLEIAALKGSASEAAGGPEYQLQESVVADQISQLSREWGFAEQLVLYLKVAELLSSGLQTAIDQIRAGKLCLSSTVKQVVRRLNELYKASVVSCQGLSLRLQRFFLDKQRLLDGIHGVTAERLILSHAVQMVQSAALDEMFQHREGCVPRYHKALLLLEGLQHTLTDQADIENIAKCKLCIERRLSALLSGVYA
B2: FLAG-ULK1 F357A/V360A (LIR motif mutant of mouse ULK1) (protein, UniProt O70405 1-1051)
chain: B1 chain with F357A, V360A
B3: FLAG-ULK1 K46N (kinase-dead mutant of mouse ULK1) (protein, UniProt O70405 1-1051)
chain: B1 chain with K46N

molecular target: HA-Bcl2-L-13 (N-terminal hemagglutinin-tagged mouse Bcl2-like protein 13) (mouse) (UniProt P59017); assay: proximity ligation; HEK293A cells transfected with HA-Bcl2-L-13 or empty vector and FLAG-ULK1 or its mutants, fixed after 48 hr; anti-HA and anti-FLAG antibodies, Duolink; dots per cell, empty-vector values subtracted

binding, binds:
B1
B2
B3

molecular target: HA-Bcl2-L-13 (N-terminal hemagglutinin-tagged mouse Bcl2-like protein 13) (mouse) (UniProt P59017); assay: co-IP; HEK293A cells transfected 48 h (for endogenous ULK1 and LC3B: pepstatin A and E64d 10 ug/ml each for 4 h before sampling); lysis buffer 50 mM Tris-HCl, 50 mM NaCl, 1 mM EDTA, 0.3% CHAPS, pH 7.4; anti-HA antibody with protein A magnetic beads, 4°C, 2 h; precipitates blotted for ULK1, LC3B or FLAG

binding, binds:
B1
B2
B3
